These results are taken from publication PMC8602370.

Chains of the proteins cited; added tags and fusions are not shown.
UniProt P09874, whole entry: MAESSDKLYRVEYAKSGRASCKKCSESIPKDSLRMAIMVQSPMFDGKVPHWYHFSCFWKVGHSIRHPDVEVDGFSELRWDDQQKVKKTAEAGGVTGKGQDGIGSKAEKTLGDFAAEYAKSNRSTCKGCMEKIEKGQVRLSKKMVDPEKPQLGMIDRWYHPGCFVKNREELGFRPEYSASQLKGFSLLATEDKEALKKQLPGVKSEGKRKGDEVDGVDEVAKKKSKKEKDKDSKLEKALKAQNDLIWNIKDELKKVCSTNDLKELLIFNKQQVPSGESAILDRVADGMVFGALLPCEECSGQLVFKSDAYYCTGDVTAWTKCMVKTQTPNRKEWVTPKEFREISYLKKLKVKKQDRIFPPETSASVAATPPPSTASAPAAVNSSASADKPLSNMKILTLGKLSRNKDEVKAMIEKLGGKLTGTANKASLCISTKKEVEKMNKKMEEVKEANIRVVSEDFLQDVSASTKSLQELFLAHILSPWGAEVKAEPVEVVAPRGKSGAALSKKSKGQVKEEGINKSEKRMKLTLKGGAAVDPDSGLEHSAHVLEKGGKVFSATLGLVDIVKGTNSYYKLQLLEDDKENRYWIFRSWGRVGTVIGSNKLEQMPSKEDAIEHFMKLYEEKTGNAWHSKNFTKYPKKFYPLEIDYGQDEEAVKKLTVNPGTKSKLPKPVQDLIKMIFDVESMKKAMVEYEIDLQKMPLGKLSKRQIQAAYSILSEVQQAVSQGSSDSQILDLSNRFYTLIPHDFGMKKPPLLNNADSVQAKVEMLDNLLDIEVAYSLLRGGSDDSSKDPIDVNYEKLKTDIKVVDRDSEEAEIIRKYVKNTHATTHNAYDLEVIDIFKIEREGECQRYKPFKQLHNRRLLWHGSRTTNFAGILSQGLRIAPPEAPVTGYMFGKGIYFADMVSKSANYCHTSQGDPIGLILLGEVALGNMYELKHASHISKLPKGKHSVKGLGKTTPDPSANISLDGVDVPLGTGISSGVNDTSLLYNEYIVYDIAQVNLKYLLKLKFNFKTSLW

The exact form of at least one protein or probe is not confirmed. At least one verdict rests on a figure or table, not on a statement of the authors.

Series [1] addresses PARP1 WT (UniProt P09874). Briefly: HXMS. To be noted: 2.6 uM PARP1, 5 uM DNA; HXMS: 10 mM HEPES pD 7.0, 150 mM NaCl, RT; recombinant protein; residues 1-1014; protein details: N-terminal His6; folded or branched DNA.
The subject of series [2] is PARP1 WT + HPF1. Briefly: HXMS. The following applies: HPF1:PARP1 1:1, faster HX in HD helices B and F; HXMS: 10 mM HEPES pD 7.0, 150 mM NaCl, RT; recombinant protein; folded or branched DNA.

For “GCTGGCTTCGTAAGAAGCCAGCTCGCGGTCAGCTTGCTGACCGCG [SSB DNA (HXMS)]”, the binding result in series [1] and in series [2] was “binds” each time.
